# Laboratory results reported in PubChem BioAssay AID720540 (National Center for Advancing Translational Sciences (NCATS), 2013).
# Protein sequences, listed by entry. Tags and fused reporters are not part of them. Lines headed by an entry give the natural chain unless they say otherwise; changes in a name come on top.
# UniProt O00167: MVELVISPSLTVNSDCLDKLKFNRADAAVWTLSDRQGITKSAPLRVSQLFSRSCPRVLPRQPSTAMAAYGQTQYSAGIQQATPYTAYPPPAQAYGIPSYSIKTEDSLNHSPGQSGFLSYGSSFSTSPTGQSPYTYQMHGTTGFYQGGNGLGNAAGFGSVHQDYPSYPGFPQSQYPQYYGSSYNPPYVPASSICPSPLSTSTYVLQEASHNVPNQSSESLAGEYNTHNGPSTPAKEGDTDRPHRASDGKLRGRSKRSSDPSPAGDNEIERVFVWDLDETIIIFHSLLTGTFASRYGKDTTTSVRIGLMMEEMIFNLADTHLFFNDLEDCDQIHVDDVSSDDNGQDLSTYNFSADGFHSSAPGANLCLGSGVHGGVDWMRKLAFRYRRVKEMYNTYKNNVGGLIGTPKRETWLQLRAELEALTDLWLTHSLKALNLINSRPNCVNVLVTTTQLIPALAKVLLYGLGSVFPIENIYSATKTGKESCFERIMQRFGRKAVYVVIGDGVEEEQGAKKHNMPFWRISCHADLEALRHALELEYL
# About 460 (35%) of roughly 1,300 compounds were called active. The shares of active, inactive and inconclusive entries below differ from those in the screen. Calls come from the whole dose curve; as a rule, active = well fitted inhibition curve with a large enough effect; inconclusive = small, poorly fitted or top-dose-only effect; inactive = flat fitted curve, though single readings scatter. Potencies beside an inconclusive call are fits to weak or partial responses and may not hold up.
# Target: Protein phosphatase EYA2 (Homo sapiens) (UniProt O00167)
# Test: qHTS for Inhibitors of the Phosphatase Activity of Eya2: Confirmatory Assay for Cherry-picked Compounds; note: nearly all actives have a fitted effect of over 65% in size
# Conditions: purified EYA2 phosphatase activity, qHTS confirmation; series mostly up to 46.1 µM
# Procedure, shortened: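 Eya2 (0.2 uM working solution) preincubated 10 min at room temperature with compound in pH 7.5 HEPES buffer with MgCl2, BSA, DTT. OMFP added (50 uM working solution), 10 min more; fluorescence 485/525 nm, normalized to EGTA and DMSO.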
# Potency is the fitted concentration of half-maximal effect.
row,SMILES,Potency
1,CNC(=O)c1ccc(Nc2nnc(-c3ccc(C)c(S(N)(=O)=O)c3)c3ccccc23)cc1,"inconclusive: 19 µM [inhibitor, partial curve]"
2,CC(=O)Nc1cc(=O)c2cccnc2[nH]1,active: 15.1 µM
3,CCOC(=O)c1nn2c(C(F)(F)F)cc(-c3ccc(OC)cc3)nc2c1Br,active: 12 µM
4,c1ccc(-c2ccc(C3=Nn4c(nnc4-c4cc(-c5ccccc5)n[nH]4)SC3)cc2)cc1,inactive
5,O=c1[nH]cnc2c1sc1nc3c(c(-c4ccc(Cl)cc4)c12)CCC3,"inconclusive: 1.69 µM [inhibitor, full curve]"
6,O=C(CCn1c(=O)oc2ccccc21)NCc1ccc2c(c1)OCO2,inactive
7,COc1cc(SC#N)ccc1N=Cc1c(C)[nH]n(-c2ccc(C)cc2)c1=O,"inconclusive: 8.49 µM [inhibitor, partial curve]"
8,COc1ccc(S(=O)(=O)c2c(O)c3ccc(C(=O)Nc4cccc(F)c4)cc3[nH]c2=O)cc1,active: 0.338 µM
9,CN(C)/C(CN1CCCCC1)=C1\N=C(c2ccccc2)OC1=O,"inconclusive: 16.9 µM [inhibitor, single point]"
10,CCOc1ccc2ccccc2c1C(=O)N[C@@H]1C(=O)N2[C@@H]1SC(C)(C)[C@@H]2C(=O)O,inactive
11,CCOc1ccc(NC(=O)Cc2ccc(S(=O)(=O)N3CCCCC3)cc2)cc1OCC,"inconclusive: 16.9 µM [inhibitor, partial curve]"
12,O=C(Nc1cccc(-c2cn3cccnc3n2)c1)Nc1ccccc1F,"inconclusive: 8.49 µM [inhibitor, partial curve]"
13,NC(=O)c1c(NC(=O)c2ccncc2)sc2c1CCCC2,"inconclusive: 4.26 µM [inhibitor, full curve, poor fit]"
14,CC(=O)NS(=O)(=O)c1ccc(NC(=O)c2ccc(NC(=O)c3cccs3)cc2)cc1,"inconclusive: 15.1 µM [inhibitor, partial curve]"
15,COc1ccc(N2CCN(C(=O)Cc3ccc(Cl)cc3)CC2)cc1,"inconclusive: 13.5 µM [inhibitor, partial curve]"
16,COc1ccccc1-c1cccc(-c2nc(C(=O)Nc3nccs3)cc3c2[C@@H](CCO)N(C(C)=O)C3)c1,"inconclusive: 13.5 µM [inhibitor, partial curve]"
17,COc1ccc(CCn2c(=N)c(C(=O)NCC3CCCO3)cc3c(=O)n4ccccc4nc32)cc1 (stereo unspecified),"inconclusive: 15.1 µM [inhibitor, partial curve]"
18,Cc1ccc(C(=O)Nc2cccc(-c3nc4ncccc4o3)c2)cc1,"inconclusive: 16.9 µM [inhibitor, single point]"
19,O=S(=O)(c1ccccc1)[C@@]1(c2ccccc2)C[C@@H]2ON=C(c3cccc(-c4ccccc4)c3)[C@@H]2C1,inactive
20,COC(=O)c1ccc(C23CC4(C2)[C@H](CN(CC2CCCCC2)[C@@H]4c2ccccc2)C3c2ccc(Cl)nc2)cc1 (stereo partly specified),inactive
21,COc1ccc(C2NC(C(=O)O)Cc3c2[nH]c2ccccc32)cc1CN1CCN(c2ccc(F)cc2)CC1 (stereo unspecified),"inconclusive: 19 µM [inhibitor, single point]"
22,COc1ccccc1NC(=O)C1=C(C)NC2=C(C(=O)CC(c3ccc(OC)c(OC)c3)C2)C1c1coc2ccccc2c1=O (stereo unspecified),active: 21.3 µM

# Looked up by structure from the entries so far:
row,SMILES,Potency
22,COc1ccccc1NC(=O)C1=C(C)NC2=C(C(=O)CC(c3ccc(OC)c(OC)c3)C2)C1c1coc2ccccc2c1=O (stereo unspecified),active: 21.3 µM
11,CCOc1ccc(NC(=O)Cc2ccc(S(=O)(=O)N3CCCCC3)cc2)cc1OCC,"inconclusive: 16.9 µM [inhibitor, partial curve]"
19,O=S(=O)(c1ccccc1)[C@@]1(c2ccccc2)C[C@@H]2ON=C(c3cccc(-c4ccccc4)c3)[C@@H]2C1,inactive

# Next part:

row,SMILES,Potency
1,Cn1c(=O)n(Cc2ccccc2)c(=O)c2c1nc(NCC1CCCO1)n2Cc1ccccc1 (stereo unspecified),"inconclusive: 21.3 µM [inhibitor, partial curve]"
2,Cc1cccc(C2c3[nH]c4ccccc4c3CCN2C(=O)c2cc(-c3cccn3C)n[nH]2)n1 (stereo unspecified),"inconclusive: 19 µM [inhibitor, partial curve]"
3,CCN1CCN(c2ncnc3scc(-c4ccc(C)cc4)c23)CC1,inactive
4,Cc1ccc(N2CCN(CC(O)COc3cccc4ccccc34)CC2)cc1 (stereo unspecified),"inconclusive: 13.5 µM [inhibitor, partial curve]"
5,COc1cc(C2C(C#N)=C(N)Oc3n[nH]c(C)c32)ccc1OC(=O)c1ccccc1 (stereo unspecified),"inconclusive: 16.9 µM [inhibitor, partial curve]"
6,O=C(O)COc1ccc(-c2nc(-c3ccccc3)c(-c3ccccc3)[nH]2)cc1,"inconclusive: 19 µM [inhibitor, partial curve]"
7,COC1=C(Nc2ccc(OC)cc2)C(=O)c2ccccc2C1=O,active: 6.01 µM
8,COc1cc(-c2nnc(NC(=O)CS(=O)(=O)c3ccc(F)cc3)o2)cc(OC)c1OC,"inconclusive: 15.1 µM [inhibitor, single point]"
9,Cc1ccc(C(=O)ON=C2CCN(c3ccc([N+](=O)[O-])cc3)CC2)cc1,inactive
10,CCOc1ccc2nc(N(CCN(C)C)C(=O)c3cc4ccccc4cc3OC)sc2c1,"inconclusive: 19 µM [inhibitor, partial curve]"
11,COC(=O)CSc1nnc(CNc2nc(-c3ccccc3)cs2)n1C,"inconclusive: 15.1 µM [inhibitor, partial curve]"
12,COc1ccc2oc(C(=O)Nc3cccc(S(=O)(=O)N4CCOCC4)c3)c(C)c2c1,"inconclusive: 7.57 µM [inhibitor, partial curve]"
13,Cc1cc(C)c2nc3nc(C)c(C)cc3c(N)c2c1,"inconclusive: 21.3 µM [inhibitor, partial curve]"
14,O=C(Nc1nc2ccc(F)cc2s1)C1=NN(c2ccccc2)C(=O)CC1,inactive
15,CC(=O)c1ccc(S(=O)(=O)Nc2ccc(-c3ccc4nnc(C)n4n3)cc2)cc1,"inconclusive: 16.9 µM [inhibitor, partial curve]"
16,CC(C)N=c1cc2n(-c3ccc(Cl)cc3)c3ccccc3nc-2cc1Nc1ccc(Cl)cc1,active: 1.9 µM
17,COc1ccc(NC(=O)c2nn(C)c(=O)c3ccccc23)cc1S(=O)(=O)Nc1ccccc1Cl,"inconclusive: 15.1 µM [inhibitor, partial curve]"
18,Clc1ccc(CSc2ccc(-c3ccccn3)nn2)cc1,"inconclusive: 2.39 µM [inhibitor, full curve]"
19,Nc1cc2c(cc1C(=O)c1ccccc1F)OCCO2,"inconclusive: 21.3 µM [inhibitor, partial curve]"
20,COc1cc(NC(=O)Nc2cccc(Cl)c2)c(OC)cc1NC(=O)CN1CCCCC1,"inconclusive: 19 µM [inhibitor, partial curve]"
21,COc1ccc2sc(-c3ccccc3OC)c(-c3ccc(OCCN4CCCC4)cc3)c2c1,"inconclusive: 21.3 µM [inhibitor, single point]"
22,Cc1nnc2sc(SCC(=O)Nc3ccc(Br)cc3)nn2c1=O,active: 4.78 µM

row,SMILES,Potency
1,CCOc1ccc(NC(=O)c2sccc2-n2cccc2)cc1,inactive
2,Cc1c(C)n(CC(O)CNc2ccccc2)c2ccccc12 (stereo unspecified),"inconclusive: 19 µM [inhibitor, partial curve]"
3,NC(=O)[C@@H]1CC2(CC(c3cccc(NC(=O)COc4ccc(Cl)cc4)c3)=NO2)CN1C(=O)COc1ccc(Cl)cc1 (stereo partly specified),inactive
4,CN1CCN(C(c2ccccn2)c2cc(Cl)c3cccnc3c2O)CC1 (stereo unspecified),active: 2.39 µM
5,Cc1cc(C)c2[nH]c3nc(SCC(=O)O)nnc3c2c1,"inconclusive: 19 µM [inhibitor, single point]"
6,CN1CCN(C(=S)c2cn(Cc3ccc(Br)cc3)c3ccccc23)CC1,"inconclusive: 21.3 µM [inhibitor, partial curve]"
7,CCC(CC)COC(=O)C1=C(C)NC(=O)NC1c1ccc(N(C)C)cc1 (stereo unspecified),"inconclusive: 10.7 µM [inhibitor, partial curve]"
8,COc1ccc(-c2coc3cc4oc(=O)c(CC(=O)O)c(C)c4cc23)cc1,"inconclusive: 21.3 µM [inhibitor, partial curve]"
9,NC(=O)c1ccc(-c2nnc(Nc3ccc(S(N)(=O)=O)cc3)c3ccccc23)cc1,active: 13.5 µM
10,O=C(O)CCN1C(=O)/C(=C/c2ccc(-c3nc4ccccc4s3)o2)SC1=S,active: 3.79 µM
11,Cc1cc(O)c(-c2cc(O)c(C)cc2O)cc1O,"inconclusive: 9.53 µM [inhibitor, partial curve]"
12,COc1cccc(Nc2nc(-c3sc(NC(=O)c4ccco4)nc3C)cs2)c1,"inconclusive: 21.3 µM [inhibitor, partial curve]"
13,Cc1ccc(C)c(OC(C)C(=O)Nc2ccc(S(=O)(=O)Nc3nccs3)cc2)c1 (stereo unspecified),"inconclusive: 19 µM [inhibitor, partial curve]"
14,O=C(C1=C[C@H](c2ccccc2)C[C@H](OCc2ccc(CO)cc2)O1)N1CCN(Cc2ccccc2)CC1,inactive
15,Cc1cccc2cn[nH]c12,inactive
16,CC(=O)Nc1ccc(S(=O)(=O)NCc2ccc3[nH]c(C)cc3c2)cc1,"inconclusive: 23.9 µM [inhibitor, single point]"
17,COCC(C)n1c(-c2ccc3c(c2)NC(=O)CO3)csc1=Nc1ccc(OC(F)F)cc1 (stereo unspecified),"inconclusive: 7.57 µM [inhibitor, partial curve]"
18,CCCCC1=CC2=C(c3ccco3)C(=O)C(C)(OC(=O)c3ccc(OC)cc3)C(=O)C2=CN1CCc1ccccn1 (stereo unspecified),inactive
19,CC1Cc2ccccc2N1C(=O)C1CCCN1S(=O)(=O)c1ccc(Cl)cc1 (stereo unspecified),inactive
20,CN(Cc1ccccc1N1CCCC1)C(=O)c1cc2cc(Cl)ccc2o1,"inconclusive: 15.1 µM [inhibitor, partial curve]"
21,O=C(O)c1ccc(Nc2nc(-c3cccnc3)cs2)cc1O,"inconclusive: 19 µM [inhibitor, partial curve]"
22,Cc1c(CC(=O)N[C@@H](C)C(=O)O)c(=O)oc2cc3occ(-c4ccccc4)c3cc12,active: 8.49 µM
